{
  "source": "paper PMC9076019",
  "about": "“HSP90 N‐terminal inhibitors target oncoprotein MORC2 for autophagic degradation and suppress MORC2‐driven breast cancer progression” (Clinical and Translational Medicine, 2022)",
  "molecular_target": "Full-length Flag-MORC2 (human) (UniProt Q9Y6X9)",
  "assay": "cross-linking; cytosolic fraction of HEK293T cells transfected with Flag-MORC2 (48 h); chemical cross-linking with 0.05% glutaraldehyde on ice for 5 min; immunoblotting",
  "note": "These are yes or no findings as the source states them, for the method shown. In cells and extracts the contact can be indirect. Some entries that bind do so weakly or less than the wild type. Tags and fused reporters may be left off the sequences shown.",
  "data": [
    {"binder": "Full-length Flag-MORC2 (natural protein, human, UniProt Q9Y6X9-1 1-1032, looked up, MORC2, human, full length (residues 1-1032); source: HEK293T, transfected, in cytosolic and nuclear fractions) MAFTNYSSLNRAQLTFEYLHTNSTTHEFLFGALAELVDNARDADATRIDIYAERREDLRGGFMLCFLDDGAGMDPSDAASVIQFGKSAKRTPESTQIGQYGNGLKSGSMRIGKDFILFTKKEDTMTCLFLSRTFHEEEGIDEVIVPLPTWNARTREPVTDNVEKFAIETELIYKYSPFRTEEEVMTQFMKIPGDSGTLVIIFNLKLMDNGEPELDIISNPRDIQMAETSPEGTKPERRSFRAYAAVLYIDPRMRIFIHGHKVQTKRLSCCLYKPRMYKYTSSRFKTRAEQEVKKAEHVARIAEEKAREAESKARTLEVRLGGDLTRDSRVMLRQVQNRAITLRREADVKKRIKEAKQRALKEPKELNFVFGVNIEHRDLDGMFIYNCSRLIKMYEKVGPQLEGGMACGGVVGVVDVPYLVLEPTHNKQDFADAKEYRHLLRAMGEHLAQYWKDIAIAQRGIIKFWDEFGYLSANWNQPPSSELRYKRRRAMEIPTTIQCDLCLKWRTLPFQLSSVEKDYPDTWVCSMNPDPEQDRCEASEQKQKVPLGTFRKDMKTQEEKQKQLTEKIRQQQEKLEALQKTTPIRSQADLKKLPLEVTTRPSTEEPVRRPQRPRSPPLPAVIRNAPSRPPSLPTPRPASQPRKAPVISSTPKLPALAAREEASTSRLLQPPEAPRKPANTLVKTASRPAPLVQQLSPSLLPNSKSPREVPSPKVIKTPVVKKTESPIKLSPATPSRKRSVAVSDEEEVEEEAERRKERCKRGRFVVKEEKKDSNELSDSAGEEDSADLKRAQKDKGLHVEVRVNREWYTGRVTAVEVGKHVVRWKVKFDYVPTDTTPRDRWVEKGSEDVRLMKPPSPEHQSLDTQQEGGEEEVGPVAQQAIAVAEPSTSECLRIEPDTTALSTNHETIDLLVQILRNCLRYFLPPSFPISKKQLSAMNSDELISFPLKEYFKQYEVGLQNLCNSYQSRADSRAKASEESLRTSERKLRETEEKLQKLRTNIVALLQKVQEDIDINTDDELDAYIEDLITKGD", "values": [
      {"measurement": "binding", "value": "binds weakly"}
    ]}
  ]
}
